Test results: patent US20180055816A1, “PYRANONAPHTHOQUINONE COMPOUNDS AND METHODS OF USE THEREOF” (University of Kentucky Research Foundation, priority 2016, published 2018)
For some of these results: For at least one compound, name, drawing or mass did not settle the structure. Some of these results come from one statement about several compounds together.

Columns and labels:
Prx1 = target: T1, Prx1 (Homo sapiens, UniProt Q06830); assay: Prx1 catalytic activity inhibition; format: biochemical; conditions: relative to conoidin A; 1 hour incubation
T1 sequence (Q06830 1-199): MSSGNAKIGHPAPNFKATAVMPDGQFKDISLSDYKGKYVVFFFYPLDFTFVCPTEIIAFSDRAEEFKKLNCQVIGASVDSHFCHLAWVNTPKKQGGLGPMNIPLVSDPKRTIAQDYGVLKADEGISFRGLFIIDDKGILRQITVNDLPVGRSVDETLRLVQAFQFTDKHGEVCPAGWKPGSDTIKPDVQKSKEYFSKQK
Method: The recombinant Prx1 protein was incubated with the indicated concentration of FB, 12, or conoidin A for 1 hour. Data are presented as mean±s.e.m. (n=3 technical replicates per condition). […]. Statistical significance was determined by the Student's t-test.
Prx1 and Grx3 are antioxidant enzymes known to regulate oxidative stress. Prx1 catalyzes peroxide reduction of H2O2, whereas Grx3 functions as glutathione (GSH)-dependent oxidoreductase by participating in the conversion of reduced GSH to oxidized glutathione disulfide (GSSG). […] While Grx3 biochemical assays are lacking, FB and active analogs could lead to a decrease in GSH levels and an increase in GSSG levels in HCT116 cells (FIGS. 23A-B). As antioxidant enzymes utilize cysteine-containing active sites to reduce various cellular peroxide or disulfide substrates, the role of Prx1/Grx3 cysteines in FB ligand-binding was assessed through replacing their cysteines to alanines. […] Finally, mass spectrometry analysis confirmed the covalent modification of Prx1 and Grx3 by FB at these specific target sites. These cumulative studies provide strong validation of Prx1 and Grx3 as the predominate molecular targets of PNQs in cancer cells.

p70S6K phosphorylation = p70S6K phosphorylation in HCT116 cells (Western blot); format: cell-based, human; conditions: HCT116, 12 h; 2 μM FB or UCF76-A, 100 nM rapamycin, 0.5 μM AZD8055
Method: (§1) HCT116 cells were treated with 1 μM MK2206 and 100 nM PD0325901 alone and in combination, 100 nM rapamycin, 0.5 μM AZD8055, 2 μM UCF76-A or 2 μM FB for 12 h followed by Western blot analysis for the indicated proteins.
(§2) Cells were lysed in NP-40 lysis buffer (50 mM Tris-HCl, pH 7.5, 150 mM NaCl, 1 mM EDTA, 1% NP-40, 10% glycerol, protease and phosphatase inhibitor cocktail). Western blot analysis were performed using equivalent total protein loadings as described previously. For immunoprecipitation, the cell lysates were incubated with the indicated antibody overnight followed by incubation with a 50% slurry of protein G sepharose beads for 3 h at 4° C. The beads were washed three times with the lysis buffer, and the immunoprecipitated protein complexes were resuspended in 2× Laemmli sample buffer followed by western blot analysis.

S6 phosphorylation = S6 phosphorylation in HCT116 cells (Western blot); format: cell-based, human; conditions: HCT116, 12 h; 2 μM FB or UCF76-A, 100 nM rapamycin, 0.5 μM AZD8055
Method: as §1, §2

Structure (SMILES)	Prx1 Ki, fold lower than conoidin A (Prx1)	inhibition of p70S6K phosphorylation (p70S6K phosphorylation)	inhibition of S6 phosphorylation (S6 phosphorylation)
O=C1C[C@H]2O[C@@H](CCC(F)(F)F)C3=C(C(=O)c4c(Cl)ccc(O)c4C3=O)[C@H]2O1 [Compound 12, (3aR,5S,11bR)-10-Chloro-7-hydroxy-5-(3,3,3-trifluoropropyl)-3,3a,5,11b-tetrahydro-2H-benzo[g]furo[3,2-c]isochromene-2,6,11-trione]	> 60 fold	–	–
CCCC1OC2CC(=O)OC2C2=C1C(=O)c1c(O)cccc1C2=O (stereo not shown) [FB, frenolicin B]	> 60 fold	–	–
CO[C@H]1C[C@@H]2CC[C@@H](C)[C@@](O)(O2)C(=O)C(=O)N2CCCC[C@H]2C(=O)O[C@H]([C@H](C)C[C@@H]2CC[C@@H](O)[C@H](OC)C2)CC(=O)[C@H](C)/C=C(\C)[C@@H](O)[C@@H](OC)C(=O)[C@H](C)C[C@H](C)/C=C/C=C/C=C/1C [rapamycin]	–	potently inhibited	potently inhibited
